Measured data: PubChem BioAssay AID504791 (Drosophila RNAi Screening Center, 2011)
In all, the deposit lists about 23,000 reagents; shown is an unselected part of those with a known target gene and a result. In the full data, 199 (0.86%) are marked active. 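Plate-scaled ratios behind the calls are not deposited; printed light signals are raw; many rows marked increased or decreased are still called inactive.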 Reagents against one gene are numbered here. A plus sign joins genes that one reagent is predicted to hit.

Screen: 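Genes whose knock-down strengthens or weakens small-RNA reporter silencing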 (primary screen)
Cells: Drosophila S2-derived reporter cells
Reagents: long dsRNA against Drosophila genes, about 150-250 ng dsRNA per well (siRNA assay); about 80-120 ng (miRNA assay)
Time to read-out: about 5 days (siRNA assay); about 4 days (miRNA assay)
Challenge: copper sulfate induction of reporters: 25 µM (siRNA assay); 200 mM stated (miRNA assay), 1-2 days before reading
Detection: 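Per-well ratio of Renilla over firefly light, expressed relative to that plate's average ratio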
Scale: siRNA reporter hit score: higher = 3 marks a strong hit with raised ratio; -3 a strong hit with lowered ratio
Call rule: 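a well was a first-pass pick when its plate-scaled ratio rose above 1.5 (siRNA assay) or 1.6 (miRNA assay), or dropped below 0.6; a gene counted only if two separate dsRNAs agreed on retest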

What is on record for asf1 (anti-silencing factor 1)?
stable assay Renilla, run 1 (luminescence): 7802; stable assay firefly, run 1 (luminescence): 4.60e5; call: inactive

How did the screen score CG13449?
stable assay Renilla, run 1 (luminescence): 7300; stable assay firefly, run 1 (luminescence): 4.38e5; call: inactive

How did the screen score MED25 (Mediator complex subunit 25) #1?
siRNA reporter hit score: 3; stable assay Renilla, run 1 (luminescence): 4759; stable assay firefly, run 1 (luminescence): 1.36e5; call: inactive

How did the screen score MED25 (Mediator complex subunit 25) #2?
miRNA reporter change: reporter ratio raised past the hit cutoff; stable assay Renilla, run 1 (luminescence): 5063; stable assay firefly, run 1 (luminescence): 3.76e5; call: active

For CG13928, what was measured?
stable assay Renilla, run 1 (luminescence): 6975; stable assay firefly, run 1 (luminescence): 3.48e5; call: inactive

For GILT1 (Gamma-interferon-inducible lysosomal thiol reductase 1), how do the results read?
stable assay Renilla, run 1 (luminescence): 8194; stable assay firefly, run 1 (luminescence): 4.86e5; call: inactive

What is on record for CG15446?
stable assay Renilla, run 1 (luminescence): 6171; stable assay firefly, run 1 (luminescence): 3.70e5; call: inactive

What is on record for elfless?
stable assay Renilla, run 1 (luminescence): 8445; stable assay firefly, run 1 (luminescence): 5.78e5; call: inactive

Which result is listed for Lst8?
stable assay Renilla, run 1 (luminescence): 7982; stable assay firefly, run 1 (luminescence): 5.67e5; call: inactive

With sinah (sina homologue) #1, how do the results read?
stable assay Renilla, run 1 (luminescence): 8679; stable assay firefly, run 1 (luminescence): 4.95e5; call: inactive

Which result is listed for sinah (sina homologue) #2?
stable assay Renilla, run 1 (luminescence): 8765; stable assay firefly, run 1 (luminescence): 6.51e5; call: inactive

With CG14785, how do the results read?
stable assay Renilla, run 1 (luminescence): 9692; stable assay firefly, run 1 (luminescence): 4.48e5; call: inactive

What is on record for Ccz1 (Caffeine, calcium, zinc sensitivity 1)?
stable assay Renilla, run 1 (luminescence): 8117; stable assay firefly, run 1 (luminescence): 4.06e5; call: inactive

What is on record for ND-39 (NADH dehydrogenase (ubiquinone) 39 kDa subunit)?
stable assay Renilla, run 1 (luminescence): 7630; stable assay firefly, run 1 (luminescence): 3.85e5; call: inactive

With Coq4 + frc #1, how do the results read?
stable assay Renilla, run 1 (luminescence): 8179; stable assay firefly, run 1 (luminescence): 3.76e5; call: inactive

What is on record for Coq4 + frc #2?
stable assay Renilla, run 1 (luminescence): 7526; stable assay firefly, run 1 (luminescence): 5.62e5; call: inactive

What is on record for CG42541 #1?
stable assay Renilla, run 1 (luminescence): 5840; stable assay firefly, run 1 (luminescence): 3.02e5; call: inactive

What is on record for CG42541 #2?
miRNA reporter change: reporter ratio raised past the hit cutoff; stable assay Renilla, run 1 (luminescence): 5143; stable assay firefly, run 1 (luminescence): 1.91e5; call: inactive

With CG42541 #3, what does the deposit list?
stable assay Renilla, run 1 (luminescence): 5296; stable assay firefly, run 1 (luminescence): 3.69e5; call: inactive

For CG15767, what does the deposit list?
stable assay Renilla, run 1 (luminescence): 5279; stable assay firefly, run 1 (luminescence): 2.49e5; call: inactive

Which result is listed for ND-24L (NADH dehydrogenase (ubiquinone) 24 kDa subunit-like)?
stable assay Renilla, run 1 (luminescence): 8051; stable assay firefly, run 1 (luminescence): 4.99e5; call: inactive

With CG11353, how do the results read?
stable assay Renilla, run 1 (luminescence): 7896; stable assay firefly, run 1 (luminescence): 4.36e5; call: inactive

Which result is listed for Mctp (Multiple C2 domain and transmembrane region protein) #1?
stable assay Renilla, run 1 (luminescence): 7210; stable assay firefly, run 1 (luminescence): 3.41e5; call: inactive

With Mctp (Multiple C2 domain and transmembrane region protein) #2, how do the results read?
stable assay Renilla, run 1 (luminescence): 5988; stable assay firefly, run 1 (luminescence): 7.04e5; call: inactive

What is on record for hpRNA:CR18854 + IP3K1?
stable assay Renilla, run 1 (luminescence): 7244; stable assay firefly, run 1 (luminescence): 3.96e5; call: inactive

With B4 #1, what was measured?
stable assay Renilla, run 1 (luminescence): 6110; stable assay firefly, run 1 (luminescence): 1.08e6; call: inactive

Which result is listed for B4 #2?
stable assay Renilla, run 1 (luminescence): 8206; stable assay firefly, run 1 (luminescence): 4.35e5; call: inactive

For Rep (Rab escort protein), how do the results read?
stable assay Renilla, run 1 (luminescence): 8191; stable assay firefly, run 1 (luminescence): 3.15e5; call: inactive

What is on record for CG13231?
stable assay Renilla, run 1 (luminescence): 6367; stable assay firefly, run 1 (luminescence): 5.07e5; call: inactive

What did the screen give for eyg (eyegone) #1?
stable siRNA reporter change: reporter ratio raised past the hit cutoff; stable assay Renilla, run 1 (luminescence): 5731; stable assay firefly, run 1 (luminescence): 2.12e5; call: inactive

What did the screen give for eyg (eyegone) #2?
stable assay Renilla, run 1 (luminescence): 5575; stable assay firefly, run 1 (luminescence): 3.31e5; call: inactive

How did the screen score eyg (eyegone) #3?
miRNA reporter change: reporter ratio raised past the hit cutoff; call: inactive

How did the screen score mRpL19 (mitochondrial ribosomal protein L19) #1?
stable assay Renilla, run 1 (luminescence): 3712; stable assay firefly, run 1 (luminescence): 3.51e5; call: inactive

For mRpL19 (mitochondrial ribosomal protein L19) #2, how do the results read?
stable assay Renilla, run 1 (luminescence): 7829; stable assay firefly, run 1 (luminescence): 4.46e5; call: inactive

What is on record for CG30278?
stable assay Renilla, run 1 (luminescence): 4703; stable assay firefly, run 1 (luminescence): 4.67e5; call: inactive

Sorted by “stable assay Renilla, run 1 (luminescence)” (descending): some entries from above.
elfless → stable assay Renilla, run 1 (luminescence) = 8445; stable assay firefly, run 1 (luminescence) = 5.78e5; call = inactive
Lst8 → stable assay Renilla, run 1 (luminescence) = 7982; stable assay firefly, run 1 (luminescence) = 5.67e5; call = inactive
CG15446 → stable assay Renilla, run 1 (luminescence) = 6171; stable assay firefly, run 1 (luminescence) = 3.70e5; call = inactive
